According to PubChem BioAssay AID504467 (National Center for Advancing Translational Sciences (NCATS), 2011):
Among all 330,000 compounds or so, about 7,700 (2.3%) were called active. This list was built around the results that the source calls inconclusive (neither active nor inactive); the mix of calls is not that of the screen. Calls come from the whole dose curve; as a rule, active = well fitted inhibition curve with a large enough effect; inconclusive = small, poorly fitted or top-dose-only effect, or effect the other way; inactive = flat fitted curve, though single readings scatter. Where the call is inconclusive, the potency comes from a doubtful curve fit.

Experiment: qHTS screen for small molecules that inhibit ELG1-dependent DNA repair in human embryonic kidney (HEK293T) cells expressing luciferase-tagged ELG1; note: nearly all actives have a fitted effect of over 55% in size
Details: HEK293T ELG1-luciferase reporter, luminescence, 16 h, DNA damage induced by 5-fluorouridine; activity change, negative = inhibition: at 46.1 µM (top of the series)
Outline: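 Cells (2,000 per well) received 5-fluorouridine plus test compound or DMSO and were incubated 16 hr at 37 °C, 5% CO2. Luciferase activity was read by luminescence 30 min after ONE-Glo addition; signal suppression marked inhibition of damage-induced ELG1 function.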
% is set by controls: 0 for no effect and ±100 for the full control effect; potency is the fitted concentration of half-maximal effect.

SMILES	activity change, negative = inhibition	Potency
C[C@H]1CN([C@@H](C)CO)C(=O)Cc2cc(NC(=O)CCN3CCOCC3)ccc2O[C@@H]1CN(C)Cc1ccc(Oc2ccccc2)cc1	inactive: -0.481%	
O=C(Nc1ccc(S(=O)(=O)N2CCCCC2)cc1)C1CCN(C(=O)c2ccc(F)cc2)CC1		inconclusive: 10.3 µM [inhibitor, partial curve, poor fit]
O=C(c1ccc(F)cc1)N1CCC(C(=O)N2CCN(S(=O)(=O)c3cccc([N+](=O)[O-])c3)CC2)CC1	inactive: -1.96%	
Cc1nnc2nc(-c3ccccc3)nc(-c3ccccc3)n12	inactive: -4.88%	
CN(CC(=O)N(C)CC(=O)Nc1c(Cl)cccc1Cl)Cc1ccccc1F		inconclusive: 8.2 µM [inhibitor, partial curve, poor fit]
O=C(Nc1ccc(Cl)cn1)c1ccc(COCC(F)(F)C(F)F)o1		inconclusive: 9.2 µM [activator, partial curve]
COc1ccc(-c2nnc(C)c3nocc23)cc1	inactive: 2.24%	
CNc1cc(CSC)nc(SCc2ccc(Cl)cc2Cl)n1	inactive: -3.54%	
COc1ccc(CCN(C)C(=S)NC(=O)c2ccc(F)cc2Cl)cc1OC		inconclusive: 25.9 µM [inhibitor, single point]
CC(C)C(=O)NC(c1ccccc1)c1cc([N+](=O)[O-])c2cccnc2c1O (stereo not given)		inconclusive: 32.6 µM [inhibitor, single point]
C=CCSc1nnc(-c2ccc([N+](=O)[O-])cc2)o1		inconclusive: 18.3 µM [activator, partial curve]
CCOC(=O)C1=C(C)N=c2s/c(=C\c3ccc(OCC(=O)O)c(OC)c3)c(=O)n2C1c1ccc(OC)cc1 (stereo not given)	inactive: 9.1%	
COc1cccc(/C=N/Nc2ncnc(N)c2[N+](=O)[O-])c1OC		inconclusive: 0.92 µM [activator, partial curve]
CC(C)c1nc(SCC(=O)Nc2ccc([N+](=O)[O-])cc2Br)n[nH]1		inconclusive: 23.1 µM [inhibitor, single point]
Cc1ccc2nc(SCC(=O)Nc3ccccc3N3CCOCC3)c(C#N)cc2c1		active: 4.11 µM
CN1CCN(c2nc(-c3ccccc3Cl)nc3ccccc23)CC1	inactive: 6.39%	
CCc1cc(C(=O)Nc2ccc(C)cc2Br)cs1		inconclusive: 4.61 µM [activator, full curve]
N/C(=N\OC(=O)COc1ccc2ccccc2c1Br)c1ccccn1		inconclusive: 18.3 µM [activator, partial curve]
Cc1[nH]c2ccccc2c1/C=C(\C#N)S(=O)(=O)c1ccccc1	inactive: -0.408%	
O=C(Nc1ccccc1)Oc1cccc(Br)c1		inconclusive: 20.6 µM [activator, single point]
COc1ccc(-c2cc(C(F)(F)F)nc(SCC(=O)Nc3cc(C)on3)n2)cc1		inconclusive: 2.91 µM [inhibitor, full curve, poor fit]
COc1ccc(OC)c(CN2CCN(C(=O)c3cccc4ccccc34)CC2)c1		inconclusive: 23.1 µM [inhibitor, single point]
CN(C(=O)COC(=O)C1CCN(S(=O)(=O)c2cccs2)CC1)C1CCS(=O)(=O)C1 (stereo not given)	inactive: -4.89%	

SMILES	activity change, negative = inhibition	Potency
O=C(NCC(c1ccco1)N1CCN(c2ccccc2)CC1)C(=O)NC1CCCCC1 (stereo not given)	inactive: -20.1%	
COc1ccccc1-n1c(SCC(=O)N2CCc3ccccc32)nc2c(c1=O)SCC2		inconclusive: 29.1 µM [inhibitor, partial curve, poor fit]
N#Cc1c(SCC(=O)Nc2nccs2)nc2c(c1-c1ccco1)CCCC2		inconclusive: 20.6 µM [activator, partial curve]
COc1ccccc1NC(=O)CSc1ncn(-c2ccccc2)n1	inactive: -24%	
CCn1ccc(C(=O)Nc2ccsc2C(=O)OC)n1		inconclusive: 9.2 µM [inhibitor, partial curve]
CCOC(=O)Cc1nnc(NC(=O)C2CCCCC2)s1	inactive: 7.63%	
COC(=O)C1=C(Nc2ccccc2NC(=O)c2ccccc2C(=O)O)CSC1		inconclusive: 23.1 µM [activator, single point]
CCOC(=O)N1CCN(Cc2cc(=O)oc3ccc(Cl)cc23)CC1	inactive: 4.1%	
O=C(Cn1c(-c2cscn2)nc2ccccc21)Nc1cc(F)ccc1F		inconclusive: 25.9 µM [activator, single point]
Cc1ccc(N2C(=O)c3ccccc3C2=O)cc1Cl		inconclusive: 14.6 µM [activator, partial curve, poor fit]
O=C(c1cc2c(=O)n3ccccc3nc2s1)N1CCN(c2cccc(Cl)c2)CC1		inconclusive: 29.1 µM [inhibitor, partial curve, poor fit]
O=C1[C@@H]2Cc3ccccc3CN2C(=O)N1c1cccc(F)c1		inconclusive: 20.6 µM [activator, single point]
COc1ccc(/C=N/OCC(=O)Nc2nc3ccccc3s2)cc1		inconclusive: 16.4 µM [activator, single point]
COC(=O)c1[nH]c2cc(C)ccc2c1NC(=O)CN1CCOCC1	inactive: -10.9%	
Cc1ccc(S(=O)(=O)Cc2ccc(C(=O)NC3CCCCCC3)o2)cc1	inactive: -8.03%	
Cc1cc(NC(=O)C(C)C)ncc1NC(=O)c1ccccn1		inconclusive: 13 µM [activator, partial curve]
COc1cc(OC)cc(N2CCN(S(=O)(=O)c3ccc(-n4cnnn4)cc3)CC2)c1		inconclusive: 20.6 µM [activator, single point]
COc1ccc(C(=O)N/N=C/c2ccc(OC)c(COc3ccc(F)cc3)c2)cc1		active: 14.6 µM
Nc1ccccc1C(=O)NCc1ccccc1		inconclusive: 23.1 µM [activator, single point]
Cc1cc(Cl)nc2ccc(Cc3ccc4nc(Cl)cc(C)c4c3)cc12		inconclusive: 20.6 µM [inhibitor, single point]
Cc1ccc(C)c2[nH]c(=O)c(CCNC(=O)c3ccc(S(=O)(=O)N4CCOCC4)cc3)cc12		inconclusive: 29.1 µM [inhibitor, single point]
O=C(OCn1nnc2ccccc2c1=O)c1cn(-c2ccccc2)nc1-c1cccnc1		inconclusive: 16.4 µM [inhibitor, single point]

Quoted at random: three records from the list
SMILES	activity change, negative = inhibition	Potency
COC(=O)c1[nH]c2cc(C)ccc2c1NC(=O)CN1CCOCC1	inactive: -10.9%	
Cc1ccc(N2C(=O)c3ccccc3C2=O)cc1Cl		inconclusive: 14.6 µM [activator, partial curve, poor fit]
COc1cc(OC)cc(N2CCN(S(=O)(=O)c3ccc(-n4cnnn4)cc3)CC2)c1		inconclusive: 20.6 µM [activator, single point]
